The exact form of at least one protein or probe is not confirmed.
Legend:
[1] = test system: MG140-8c5 (C-terminal endonuclease trim); assay: activity assay; conditions: purified recombinant protein
[2] = test system: MG140-8c5 (C-terminal endonuclease trim); assay: FP; conditions: strand displacement, dNTP dependent; purified recombinant protein; label: 5'-FAM displacement oligo; DNA:RNA hybrid

TAGAAGTCCTCTTGGCGCCGAAGGATGGCGTGAAGCTCCTCAAGATGGATCTGGTGTGGAATGCTCCCATTGTCGAAAGTGCGCTGCTTCCGCAGCAGAT / ATCTGCTGCGGAAGCAGC / CGGCGCCAAGAGGACTTCTA [100-nt ssDNA template with priming and quencher oligos]
activity on this sequence ([1]; second-strand synthesis, fluorescence unquenching, label: 5'-FAM template, 3'-quencher oligo, folded or branched DNA): active

GGCAAACCGCCTCTCCCCGCGCGTTGGCCGATTCATTAATGCAGCTGGCACGACAGGTTTCCCGACTGGAAAGGAGACCCGGGCAGTGAGCGCAACGGGTCTCCAATTTAAGCCAGCCCCGACACCCGCCAACACCCGCTGACGCGCCCTGACGGGCTTGTCTGCTCCCGGCATCCGCTTACAGACAAGCTGTGACCGTCTC / GAGACGGTCACAGCTTGTCTG [202-nt m1-pseudouridine RNA template annealed to DNA primer]
activity on this sequence ([1]; all U replaced by N1-methylpseudouridine in RNA, retains appreciable activity on m1-pseudouridine template, label: 5'-FAM primer, DNA:RNA hybrid): active

GACCGGAACTCTTTGGAATGGGAATAAGATCATTGATGAAAGACTTATAAATCCTGATGGGAGTCTCCTCTTTAGAGTGACAATTAATGGGGTAACAGGATGGAGACTCTGTGAGCGGATCTTGGCTTAGCCCAAACCCAAACCCAAACC / CCCCTCGAGGTCGACGGTATCGATAAGCTTGATATCGAATTCCTGCAGCCCGGGGGATCCACTAGTTCTAGAGCGGCCGCCACCGCGGTGGAGCTCCAGCTTTTGTTCCCTTTAGTGAGGGTTAATTTCGAGCTTGGCGTAATCATGGTCTT [primed Donor RNA plus Acceptor RNA (template switching)]
activity on this sequence ([1]; template switching): active

TAGAAGTCCTCTTGGCGCCGAAGGATGGCGTGAAGCTCCTCAAGATGGATCTGGTGTGGAATGCTCCCATTGTCGAAAGTGCGCTGCTTCCGCAGCAGAT / CGGCGCCAAGAGGACTTCTA [unprimed 100-nt RNA template with quencher oligo]
activity on this sequence ([1]; active on unprimed RNA, label: 5'-FAM template, 3'-quencher oligo, DNA:RNA hybrid): active

GGCAAACCGCCTCTCCCCGCGCGTTGGCCGATTCATTAATGCAGCTGGCACGACAGGTTTCCCGACTGGAAAGGAGACCCGGGCAGTGAGCGCAACGGGTCTCCAATTTAAGCCAGCCCCGACACCCGCCAACACCCGCTGACGCGCCCTGACGGGCTTGTCTGCTCCCGGCATCCGCTTACAGACAAGCTGTGACCGTCTC / GAGACGGTCACAGCTTGTCTG / CGCGCGGGGAGAGGC [RNA template with priming and displacement oligos]
activity on this sequence [2]: active

From patent US20260193623
